Assay results taken from the supplement of paper PMC10849652.
This is one part of the list. Residues, ends and D or L forms follow the SMILES beside them. *: point of attachment. Cbz = O=C(OCc1ccccc1)*

Protein sequences, listed by entry. Tags and fused reporters are not part of them. Lines headed by an entry give the natural chain unless they say otherwise; changes in a name come on top.
UniProt Q86U70: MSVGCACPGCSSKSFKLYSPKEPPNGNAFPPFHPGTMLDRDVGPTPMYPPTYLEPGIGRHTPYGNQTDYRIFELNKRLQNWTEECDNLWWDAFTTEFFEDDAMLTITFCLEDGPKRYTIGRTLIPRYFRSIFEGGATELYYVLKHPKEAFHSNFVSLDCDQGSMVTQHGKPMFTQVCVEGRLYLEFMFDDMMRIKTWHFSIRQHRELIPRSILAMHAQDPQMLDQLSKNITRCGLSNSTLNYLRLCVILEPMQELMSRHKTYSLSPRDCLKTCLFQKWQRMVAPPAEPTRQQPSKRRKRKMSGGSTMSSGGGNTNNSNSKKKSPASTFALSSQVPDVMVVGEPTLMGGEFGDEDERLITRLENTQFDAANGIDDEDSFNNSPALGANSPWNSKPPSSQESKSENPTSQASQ
UniProt P13473: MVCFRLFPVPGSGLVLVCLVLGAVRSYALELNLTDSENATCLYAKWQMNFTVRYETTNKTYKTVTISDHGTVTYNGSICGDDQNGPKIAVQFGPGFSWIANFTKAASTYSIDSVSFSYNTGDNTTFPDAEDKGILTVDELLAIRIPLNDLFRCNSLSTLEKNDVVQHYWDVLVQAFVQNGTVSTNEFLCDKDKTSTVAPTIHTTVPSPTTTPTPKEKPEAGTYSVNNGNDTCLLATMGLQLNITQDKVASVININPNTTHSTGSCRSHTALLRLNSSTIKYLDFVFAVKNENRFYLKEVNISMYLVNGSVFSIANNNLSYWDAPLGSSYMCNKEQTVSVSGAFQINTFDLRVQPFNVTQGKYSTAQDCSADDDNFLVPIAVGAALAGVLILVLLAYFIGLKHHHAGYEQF
UniProt P50851: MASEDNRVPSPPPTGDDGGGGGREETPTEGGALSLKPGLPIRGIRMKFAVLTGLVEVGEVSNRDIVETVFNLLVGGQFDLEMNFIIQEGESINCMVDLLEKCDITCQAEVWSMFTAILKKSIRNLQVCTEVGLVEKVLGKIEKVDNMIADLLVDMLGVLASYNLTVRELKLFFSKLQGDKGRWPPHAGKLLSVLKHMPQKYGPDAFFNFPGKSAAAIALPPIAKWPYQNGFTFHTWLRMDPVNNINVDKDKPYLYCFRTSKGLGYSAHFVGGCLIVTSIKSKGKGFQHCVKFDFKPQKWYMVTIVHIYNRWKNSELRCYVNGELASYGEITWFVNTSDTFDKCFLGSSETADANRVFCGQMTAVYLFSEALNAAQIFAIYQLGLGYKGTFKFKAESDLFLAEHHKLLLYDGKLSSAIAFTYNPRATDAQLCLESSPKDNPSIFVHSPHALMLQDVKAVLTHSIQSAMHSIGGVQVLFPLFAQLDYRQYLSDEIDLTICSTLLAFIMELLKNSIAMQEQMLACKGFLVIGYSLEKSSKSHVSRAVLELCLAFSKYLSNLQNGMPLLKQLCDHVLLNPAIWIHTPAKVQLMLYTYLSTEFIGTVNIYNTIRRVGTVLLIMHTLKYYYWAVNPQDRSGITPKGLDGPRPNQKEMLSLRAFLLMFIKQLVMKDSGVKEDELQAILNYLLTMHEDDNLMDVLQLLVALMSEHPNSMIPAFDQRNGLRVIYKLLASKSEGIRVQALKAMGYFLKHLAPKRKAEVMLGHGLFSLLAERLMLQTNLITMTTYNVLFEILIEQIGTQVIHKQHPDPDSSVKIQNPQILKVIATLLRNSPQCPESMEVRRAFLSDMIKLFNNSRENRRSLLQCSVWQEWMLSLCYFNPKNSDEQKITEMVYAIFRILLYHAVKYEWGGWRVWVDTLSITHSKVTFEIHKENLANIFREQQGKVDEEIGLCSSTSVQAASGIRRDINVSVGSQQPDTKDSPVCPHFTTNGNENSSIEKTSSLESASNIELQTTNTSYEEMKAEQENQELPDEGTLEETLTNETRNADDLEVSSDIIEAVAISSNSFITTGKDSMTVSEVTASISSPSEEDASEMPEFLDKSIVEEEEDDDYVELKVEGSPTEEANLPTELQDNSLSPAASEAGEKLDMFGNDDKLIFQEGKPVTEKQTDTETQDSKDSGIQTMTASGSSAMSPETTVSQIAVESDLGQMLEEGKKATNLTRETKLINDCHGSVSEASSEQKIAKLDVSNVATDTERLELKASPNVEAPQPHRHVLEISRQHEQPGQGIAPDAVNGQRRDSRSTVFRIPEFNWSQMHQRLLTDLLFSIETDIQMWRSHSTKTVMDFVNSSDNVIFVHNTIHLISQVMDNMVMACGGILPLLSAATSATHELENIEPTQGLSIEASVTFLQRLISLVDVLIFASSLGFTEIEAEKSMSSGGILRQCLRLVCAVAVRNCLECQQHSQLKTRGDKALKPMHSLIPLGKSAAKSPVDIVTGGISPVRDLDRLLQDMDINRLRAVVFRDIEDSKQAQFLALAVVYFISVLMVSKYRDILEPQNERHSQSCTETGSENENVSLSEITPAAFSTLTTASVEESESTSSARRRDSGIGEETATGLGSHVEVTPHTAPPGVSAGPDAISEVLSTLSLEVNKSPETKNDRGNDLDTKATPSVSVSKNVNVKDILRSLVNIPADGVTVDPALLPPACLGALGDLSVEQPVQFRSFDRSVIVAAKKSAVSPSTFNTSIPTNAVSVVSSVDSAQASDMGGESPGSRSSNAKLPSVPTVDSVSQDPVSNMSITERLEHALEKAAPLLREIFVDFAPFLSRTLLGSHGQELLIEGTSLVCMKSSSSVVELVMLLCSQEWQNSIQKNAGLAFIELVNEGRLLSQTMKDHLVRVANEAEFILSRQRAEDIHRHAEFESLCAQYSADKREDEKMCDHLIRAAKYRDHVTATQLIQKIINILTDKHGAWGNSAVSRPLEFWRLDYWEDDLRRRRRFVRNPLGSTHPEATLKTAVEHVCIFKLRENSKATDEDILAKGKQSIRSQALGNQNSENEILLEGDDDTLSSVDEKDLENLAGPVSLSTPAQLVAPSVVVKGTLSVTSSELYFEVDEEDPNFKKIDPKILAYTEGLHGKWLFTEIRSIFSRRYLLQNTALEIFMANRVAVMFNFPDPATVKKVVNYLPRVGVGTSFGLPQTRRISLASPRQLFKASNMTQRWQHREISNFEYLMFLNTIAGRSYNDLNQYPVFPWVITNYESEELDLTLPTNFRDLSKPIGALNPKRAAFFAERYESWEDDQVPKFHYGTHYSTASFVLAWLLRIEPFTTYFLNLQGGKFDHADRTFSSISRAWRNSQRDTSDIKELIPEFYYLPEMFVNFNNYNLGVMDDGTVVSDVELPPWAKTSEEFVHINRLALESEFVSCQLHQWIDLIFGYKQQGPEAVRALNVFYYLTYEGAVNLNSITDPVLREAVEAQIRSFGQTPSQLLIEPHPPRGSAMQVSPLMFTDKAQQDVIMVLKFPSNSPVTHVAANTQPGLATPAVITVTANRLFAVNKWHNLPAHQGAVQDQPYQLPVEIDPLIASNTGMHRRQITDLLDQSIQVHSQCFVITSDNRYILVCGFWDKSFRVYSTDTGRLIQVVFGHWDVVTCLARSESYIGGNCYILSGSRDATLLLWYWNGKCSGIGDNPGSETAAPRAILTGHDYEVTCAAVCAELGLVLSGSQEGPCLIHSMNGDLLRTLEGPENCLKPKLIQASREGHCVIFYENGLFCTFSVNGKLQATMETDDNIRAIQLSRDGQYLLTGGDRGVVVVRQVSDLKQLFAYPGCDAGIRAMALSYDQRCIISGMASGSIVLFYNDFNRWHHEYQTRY
UniProt Q9NUP9: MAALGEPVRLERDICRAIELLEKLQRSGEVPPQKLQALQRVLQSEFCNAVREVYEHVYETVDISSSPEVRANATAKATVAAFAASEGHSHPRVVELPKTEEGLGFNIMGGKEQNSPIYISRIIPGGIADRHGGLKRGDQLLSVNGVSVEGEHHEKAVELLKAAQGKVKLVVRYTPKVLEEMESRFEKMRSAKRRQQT
UniProt Q9H008: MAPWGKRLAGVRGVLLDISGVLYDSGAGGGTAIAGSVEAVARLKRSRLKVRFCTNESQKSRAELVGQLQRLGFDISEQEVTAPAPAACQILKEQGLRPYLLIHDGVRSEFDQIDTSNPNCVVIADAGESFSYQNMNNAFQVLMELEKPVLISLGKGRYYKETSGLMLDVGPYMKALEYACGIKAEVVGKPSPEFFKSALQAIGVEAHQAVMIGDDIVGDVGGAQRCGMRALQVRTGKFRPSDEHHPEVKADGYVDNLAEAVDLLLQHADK
UniProt Q4G0J3: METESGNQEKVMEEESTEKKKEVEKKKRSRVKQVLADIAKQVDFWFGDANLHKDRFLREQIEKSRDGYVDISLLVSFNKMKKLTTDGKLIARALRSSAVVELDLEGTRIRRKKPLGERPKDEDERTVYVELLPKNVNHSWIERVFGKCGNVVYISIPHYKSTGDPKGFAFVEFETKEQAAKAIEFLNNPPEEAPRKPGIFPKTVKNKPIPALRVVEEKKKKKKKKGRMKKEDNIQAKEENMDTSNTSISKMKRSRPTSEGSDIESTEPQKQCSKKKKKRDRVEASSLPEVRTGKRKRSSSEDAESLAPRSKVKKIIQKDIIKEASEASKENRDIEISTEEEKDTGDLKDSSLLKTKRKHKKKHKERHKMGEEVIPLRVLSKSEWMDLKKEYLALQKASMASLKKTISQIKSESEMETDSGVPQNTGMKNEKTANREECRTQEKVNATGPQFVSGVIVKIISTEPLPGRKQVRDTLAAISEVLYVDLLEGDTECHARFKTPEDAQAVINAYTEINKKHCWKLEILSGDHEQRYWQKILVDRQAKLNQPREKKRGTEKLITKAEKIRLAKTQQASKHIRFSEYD
UniProt P30533, whole entry, looked up: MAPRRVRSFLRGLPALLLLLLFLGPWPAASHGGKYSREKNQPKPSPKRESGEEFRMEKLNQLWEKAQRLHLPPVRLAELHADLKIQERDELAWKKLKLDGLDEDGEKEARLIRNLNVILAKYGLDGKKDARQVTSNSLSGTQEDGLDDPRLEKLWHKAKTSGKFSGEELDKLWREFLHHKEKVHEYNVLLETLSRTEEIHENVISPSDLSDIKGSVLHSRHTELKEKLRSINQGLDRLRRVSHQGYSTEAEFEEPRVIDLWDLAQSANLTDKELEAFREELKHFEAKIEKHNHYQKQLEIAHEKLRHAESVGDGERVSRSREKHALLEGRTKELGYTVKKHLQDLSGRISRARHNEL

How the values were obtained:
Experiment in all cases: log2 fold change, soluble protein after heating vs DMSO (PISA); higher = thermal stabilisation; K562 cells, 10 uM, 30 min; active = over 0.2 and 3.5 SD of the protein, either way, in both replicates (recomputed)
erlotinib = compound: C#Cc1cccc(Nc2ncnc3cc(OCCOC)c(OCCOC)cc23)c1 [erlotinib]
How it was run: (§1)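 Soluble protein was quantified by TMTpro 16plex LC-MS/MS after channel sums were equalised. It was obtained as the supernatant after 21,000xg for 90 min from pooled aliquots of K562 cells (2×10^6 cells/mL, 10 μM compound, 30 min) heated for 3 min across 48°C-58°C and extracted in PBS with 0.5% NP-40 at 4°C. Thermal stability values are relative to control samples and come from duplicates. They are given as log2 fold changes.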

[1] = compound: C/C(=N\NC(=O)C1=CC(=CC=C1)S(=O)(=O)N2CCOCC2)/C3=C(C=CC(=C3)Cl)O
How it was run: as §1

[2] = compound: C1=CC(=C(C=C1Cl)C2=NC3=NC=CN=C3C(=N2)NC4=CC=NC=C4)F
How it was run: as §1

[3] = compound: C1=CC(=CC=C1C2=NC3=C(N2)C=C(C=C3)C(=O)N)OC4=CC=C(C=C4)Cl
How it was run: as §1

[4] = compound: C1=CC2=C(C=CC(=C2)/C=C\3/C(=O)NC(=NCC4=CC=CS4)S3)N=C1
How it was run: as §1

[5] = compound: C1=CC2=NC=CN=C2C=C1/C=C/3\C(=O)NC(=O)S3
How it was run: as §1

[6] = compound: C1=CC=C(C=C1)C2=NC(=C(N2)C3=CC=NC=C3)C4=CC(=C(C=C4)Cl)O
How it was run: as §1

[7] = compound: C1=CC=C2C(=C1)C3=NNC4=CC=CC(=C43)C2=O
How it was run: as §1

[8] = compound: C1CCN(C1)C(=O)NC2=CC=CC(=C2)NC3=NC=C(C(=N3)NCCC4=CN=CN4)Br
How it was run: as §1

[9] = compound: C1CN(CCC1(CC2=CC=C(C=C2)Cl)N)C3=NC=NC4=C3C=CN4
How it was run: as §1

IRAK-1-4 Inhibitor I = compound: C1COCCN1CCN2C3=CC=CC=C3N=C2NC(=O)C4=CC(=CC=C4)[N+](=O)[O-] [IRAK-1-4 Inhibitor I]
How it was run: as §1

ibrutinib = compound: C=CC(=O)N1CCC[C@@H](n2nc(-c3ccc(Oc4ccccc4)cc3)c3c(N)ncnc32)C1 [ibrutinib]
How it was run: as §1

[10] = compound: CC(=O)c1cnc2ccc(-c3cc(Cl)c(O)c(Cl)c3)nc2c1N[C@H]1CC[C@H](CN(C)C)CC1
How it was run: as §1

ralimetinib = compound: CC(C)(C)Cn1c(N)nc2ccc(-c3[nH]c(C(C)(C)C)nc3-c3ccc(F)cc3)nc21 [ralimetinib]
How it was run: as §1

[11] = compound: CC(C)(O)CC(=O)NCCn1ccc2ncnc(Nc3ccc(Oc4cccc(C(F)(F)F)c4)c(Cl)c3)c21
How it was run: as §1

[12] = compound: CC(C)C1=C2N=C(C=C(N2N=C1)NCC3=CC=CC=C3)NCCCCCCN
How it was run: as §1

[13] = compound: CC(C)C[C@@H](C=O)NC(=O)[C@H](CC(C)C)NC(=O)[C@H](CC(C)C)NC(=O)OCc1ccccc1
How it was run: as §1

pinometostat = compound: CC(C)N(C[C@H]1O[C@@H](n2cnc3c(N)ncnc32)[C@H](O)[C@@H]1O)[C@H]1C[C@@H](CCc2nc3cc(C(C)(C)C)ccc3[nH]2)C1 [pinometostat]
How it was run: as §1

[14] = compound: CC1=C(C(CC(=O)N1)C2=CC=C(C=C2)C(F)(F)F)C(=O)NC3=C(C=C4C(=C3)C=NN4)F
How it was run: as §1

[15] = compound: CC1=C(C2=C(C=C1)C(=O)C3=CC=CC=C3N2CCCN)C
How it was run: as §1

Measured: log2 fold change

LDB1 (UniProt Q86U70)
inactive: erlotinib -0.061 | [1] 0.018 | [2] -0.006 | [3] 0.042 | [4] -0.007 | [5] -0.013 | [6] 0.065 | [7] -0.01 | [8] 0.015 | [9] 0.021 | IRAK-1-4 Inhibitor I 0.014 | ibrutinib 0.01 | [10] -0.025 | ralimetinib -0.035 | [11] -0.017 | [12] 0.031 | [13] -0.013 | pinometostat 0.026 | [14] 0.002 | [15] -0.01

LAMP2 (UniProt P13473)
inactive: erlotinib 0.035 | [1] 0 | [2] 0.088 | [3] 0.031 | [4] 0.002 | [5] 0.101 | [6] -0.013 | [7] -0.01 | [8] -0.013 | [9] 0.039 | IRAK-1-4 Inhibitor I 0.063 | ibrutinib 0.042 | [10] -0.083 | ralimetinib -0.12 | [11] -0.007 | [12] -0.033 | [13] 0.004 | pinometostat -0.077 | [15] 0.066

LRBA (UniProt P50851)
inactive: erlotinib 0.007 | [1] 0.024 | [2] 0.068 | [3] 0.002 | [4] 0.031 | [5] 0.051 | [6] 0.011 | [7] -0.002 | [8] 0.012 | [9] 0.015 | IRAK-1-4 Inhibitor I 0.015 | ibrutinib -0.02 | [10] -0.006 | ralimetinib -0.023 | [11] -0.059 | [12] -0.091 | [13] 0.005 | pinometostat 0.008 | [15] -0.004

LIN7C (UniProt Q9NUP9)
inactive: erlotinib 0.035 | [1] 0.042 | [2] -0.033 | [3] 0.039 | [4] -0.032 | [5] 0.015 | [6] 0.029 | [7] -0.08 | [8] 0.088 | [9] -0.058 | IRAK-1-4 Inhibitor I 0.03 | ibrutinib 0.034 | [10] -0.013 | ralimetinib 0.015 | [11] -0.1 | [12] -0.046 | [13] 0.087 | pinometostat 0.01 | [14] -0.003 | [15] -0.005

LHPP (UniProt Q9H008)
inactive: erlotinib -0.067 | [1] 0.109 | [2] 0.129 | [3] -0.018 | [4] -0.002 | [5] -0.136 | [6] 0.047 | [7] -0.037 | [8] -0.03 | [9] -0.018 | IRAK-1-4 Inhibitor I 0.023 | ibrutinib -0.008 | [10] 0.036 | ralimetinib -0.076 | [11] -0.02 | [12] 0.08 | [13] -0.038 | pinometostat 0.023 | [14] 0.052 | [15] -0.027

Taken from the entries so far (two entries):
LIN7C (UniProt Q9NUP9)
inactive: erlotinib 0.035 | [1] 0.042 | [2] -0.033 | [3] 0.039 | [4] -0.032 | [5] 0.015 | [6] 0.029 | [7] -0.08 | [8] 0.088 | [9] -0.058 | IRAK-1-4 Inhibitor I 0.03 | ibrutinib 0.034 | [10] -0.013 | ralimetinib 0.015 | [11] -0.1 | [12] -0.046 | [13] 0.087 | pinometostat 0.01 | [14] -0.003 | [15] -0.005

LHPP (UniProt Q9H008)
inactive: erlotinib -0.067 | [1] 0.109 | [2] 0.129 | [3] -0.018 | [4] -0.002 | [5] -0.136 | [6] 0.047 | [7] -0.037 | [8] -0.03 | [9] -0.018 | IRAK-1-4 Inhibitor I 0.023 | ibrutinib -0.008 | [10] 0.036 | ralimetinib -0.076 | [11] -0.02 | [12] 0.08 | [13] -0.038 | pinometostat 0.023 | [14] 0.052 | [15] -0.027

The list goes on:

LARP7 isoform 3 (UniProt Q4G0J3)
active: [15] -0.383
inactive: erlotinib 0.01 | [1] 0.119 | [2] 0.022 | [3] 0.034 | [4] 0.06 | [5] 0.023 | [6] 0.025 | [7] -0.055 | [8] -0.052 | [9] 0.045 | IRAK-1-4 Inhibitor I -0.061 | ibrutinib 0.031 | [10] 0.063 | ralimetinib 0.111 | [11] 0.021 | [12] -0.246 | [13] -0.057 | pinometostat 0.05

LRPAP1 (UniProt P30533)
inactive: erlotinib -0.076 | [1] 0.009 | [2] -0.012 | [3] 0.044 | [4] 0.007 | [5] 0.04 | [6] 0.236 | [7] -0.043 | [8] 0.024 | [9] 0.02 | IRAK-1-4 Inhibitor I 0.005 | ibrutinib -0.026 | [10] 0.007 | ralimetinib 0.149 | [11] 0.03 | [12] 0.028 | [13] -0.074 | pinometostat -0.002 | [14] 0.022 | [15] -0.019

LAMTOR4 (UniProt Q0VGL1)
inactive: erlotinib -0.029 | [1] -0.031 | [2] -0.072 | [3] 0.055 | [4] 0.073 | [5] 0.027 | [6] -0.159 | [7] 0.037 | [8] 0.016 | [9] 0.007 | IRAK-1-4 Inhibitor I -0.024 | ibrutinib 0.009 | [10] -0.157 | ralimetinib 0 | [11] 0.107 | [12] -0.12 | [13] -0.01 | pinometostat -0.078 | [14] 0.012 | [15] -0.031
